These are yes or no findings as the source states them, for the method shown. In cells and extracts the contact can be indirect. Some binding calls cover weakened binding; strength is not graded here. One block for each substance: values may come before it.
How the values were obtained:
Test in all cases: cross-linking; in-solution XL-MS: intact heart mitochondria (500 µg) of wild-type and Lrpprc knockout mice, 0.5 mM DSSO, 45 min, 15 °C; LC-MS/MS, XlinkX; n = 3 biological replicates
[1] = molecular target: T1, peripheral stalk subunit ATP5J (mouse (endogenous in heart mitochondria)) (UniProt P97450)
T1 sequence: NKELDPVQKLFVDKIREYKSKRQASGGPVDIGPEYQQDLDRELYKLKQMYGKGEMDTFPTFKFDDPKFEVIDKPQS

The chains behind the UniProt entries cited, without tags or fusion partners. Residues count along the entry.
UniProt Q03265, residues 44-553: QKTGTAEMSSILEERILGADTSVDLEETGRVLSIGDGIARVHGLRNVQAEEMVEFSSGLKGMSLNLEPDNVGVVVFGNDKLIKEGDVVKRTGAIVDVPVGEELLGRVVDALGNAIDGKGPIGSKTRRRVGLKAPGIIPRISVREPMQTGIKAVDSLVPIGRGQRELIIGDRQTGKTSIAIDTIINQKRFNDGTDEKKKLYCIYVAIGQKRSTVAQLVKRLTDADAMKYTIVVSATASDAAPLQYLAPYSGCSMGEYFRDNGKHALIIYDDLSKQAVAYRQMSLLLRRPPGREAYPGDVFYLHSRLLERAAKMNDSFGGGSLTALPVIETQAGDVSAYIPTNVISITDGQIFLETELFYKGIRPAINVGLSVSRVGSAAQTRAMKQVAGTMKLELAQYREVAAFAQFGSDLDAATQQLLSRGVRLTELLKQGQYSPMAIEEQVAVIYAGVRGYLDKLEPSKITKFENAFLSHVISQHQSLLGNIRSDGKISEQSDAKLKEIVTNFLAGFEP
UniProt P56480, residues 47-529: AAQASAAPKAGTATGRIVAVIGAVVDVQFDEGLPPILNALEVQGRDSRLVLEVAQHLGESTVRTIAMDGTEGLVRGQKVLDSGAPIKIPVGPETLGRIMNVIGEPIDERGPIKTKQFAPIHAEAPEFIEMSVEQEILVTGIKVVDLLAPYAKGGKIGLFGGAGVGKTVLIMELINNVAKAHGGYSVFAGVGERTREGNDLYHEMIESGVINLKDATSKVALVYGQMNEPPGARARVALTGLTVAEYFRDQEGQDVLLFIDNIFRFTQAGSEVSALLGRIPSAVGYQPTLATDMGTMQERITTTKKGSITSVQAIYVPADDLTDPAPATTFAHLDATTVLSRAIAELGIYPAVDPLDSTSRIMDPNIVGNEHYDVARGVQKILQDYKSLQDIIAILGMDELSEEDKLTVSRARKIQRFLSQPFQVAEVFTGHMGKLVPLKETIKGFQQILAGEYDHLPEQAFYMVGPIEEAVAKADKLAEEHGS
UniProt P03930: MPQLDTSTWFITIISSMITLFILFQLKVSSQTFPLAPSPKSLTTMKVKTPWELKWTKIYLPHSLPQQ
UniProt Q99KR7, residues 30-206: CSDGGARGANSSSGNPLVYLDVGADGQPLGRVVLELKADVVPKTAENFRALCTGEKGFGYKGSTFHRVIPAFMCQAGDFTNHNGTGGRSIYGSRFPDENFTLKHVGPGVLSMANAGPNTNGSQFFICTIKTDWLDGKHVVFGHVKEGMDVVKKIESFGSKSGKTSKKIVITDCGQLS
UniProt Q8K2B3, residues 43-664: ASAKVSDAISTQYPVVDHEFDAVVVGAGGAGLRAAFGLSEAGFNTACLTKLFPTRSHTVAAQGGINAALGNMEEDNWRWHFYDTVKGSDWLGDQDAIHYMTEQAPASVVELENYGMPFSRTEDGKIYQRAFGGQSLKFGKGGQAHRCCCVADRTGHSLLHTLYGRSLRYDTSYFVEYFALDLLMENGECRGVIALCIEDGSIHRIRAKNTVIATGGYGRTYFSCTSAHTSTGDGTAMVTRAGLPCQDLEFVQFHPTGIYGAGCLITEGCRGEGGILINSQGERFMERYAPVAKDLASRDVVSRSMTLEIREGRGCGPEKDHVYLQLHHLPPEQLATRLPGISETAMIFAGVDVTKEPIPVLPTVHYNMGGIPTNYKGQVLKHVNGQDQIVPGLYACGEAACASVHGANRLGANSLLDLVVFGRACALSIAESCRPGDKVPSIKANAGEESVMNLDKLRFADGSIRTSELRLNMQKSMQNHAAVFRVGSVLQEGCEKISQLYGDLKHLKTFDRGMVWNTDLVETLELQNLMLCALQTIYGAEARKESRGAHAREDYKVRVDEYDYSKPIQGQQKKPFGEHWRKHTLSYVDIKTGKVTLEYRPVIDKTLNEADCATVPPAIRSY

[2] = molecular target: ATP synthase F1 subunit α (ATPA) (mouse (endogenous in heart mitochondria)) (UniProt Q03265)
[3] = molecular target: ATP synthase F1 subunit β (ATPB) (mouse (endogenous in heart mitochondria)) (UniProt P56480)
[4] = molecular target: T2, ATPase inhibitory factor 1 (ATIF1) (mouse (endogenous in heart mitochondria)) (UniProt O35143)
T2 sequence: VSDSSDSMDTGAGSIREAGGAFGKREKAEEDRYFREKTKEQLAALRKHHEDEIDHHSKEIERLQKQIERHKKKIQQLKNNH

binding [1]: binds
Substance: ATP synthase F1 subunit β (ATPB) (from UniProt P56480 47-529)

binding [1]: binds
Substance: FO membrane subunit ATP8 (from UniProt P03930 1-67)

binding [2]: binds
binding [3]: binds
Substance: PPIF (Cyclophilin D) (from UniProt Q99KR7 30-206) (enzyme)

binding [4]: binds
Substance: SDHA (from UniProt Q8K2B3 43-664) (enzyme)
